Test results reported in article PMC7760077.
Results are given in words; binding and its absence hold for the method and conditions named. Some binding calls cover weakened binding; strength is not graded here. For some of these results: Sequences can lack the tags named with a protein.

T1: biotinylated recombinant mouse NRP1 (Phe22-Pro856) (mouse) (UniProt P97333)
T1 sequence (chain, biotin): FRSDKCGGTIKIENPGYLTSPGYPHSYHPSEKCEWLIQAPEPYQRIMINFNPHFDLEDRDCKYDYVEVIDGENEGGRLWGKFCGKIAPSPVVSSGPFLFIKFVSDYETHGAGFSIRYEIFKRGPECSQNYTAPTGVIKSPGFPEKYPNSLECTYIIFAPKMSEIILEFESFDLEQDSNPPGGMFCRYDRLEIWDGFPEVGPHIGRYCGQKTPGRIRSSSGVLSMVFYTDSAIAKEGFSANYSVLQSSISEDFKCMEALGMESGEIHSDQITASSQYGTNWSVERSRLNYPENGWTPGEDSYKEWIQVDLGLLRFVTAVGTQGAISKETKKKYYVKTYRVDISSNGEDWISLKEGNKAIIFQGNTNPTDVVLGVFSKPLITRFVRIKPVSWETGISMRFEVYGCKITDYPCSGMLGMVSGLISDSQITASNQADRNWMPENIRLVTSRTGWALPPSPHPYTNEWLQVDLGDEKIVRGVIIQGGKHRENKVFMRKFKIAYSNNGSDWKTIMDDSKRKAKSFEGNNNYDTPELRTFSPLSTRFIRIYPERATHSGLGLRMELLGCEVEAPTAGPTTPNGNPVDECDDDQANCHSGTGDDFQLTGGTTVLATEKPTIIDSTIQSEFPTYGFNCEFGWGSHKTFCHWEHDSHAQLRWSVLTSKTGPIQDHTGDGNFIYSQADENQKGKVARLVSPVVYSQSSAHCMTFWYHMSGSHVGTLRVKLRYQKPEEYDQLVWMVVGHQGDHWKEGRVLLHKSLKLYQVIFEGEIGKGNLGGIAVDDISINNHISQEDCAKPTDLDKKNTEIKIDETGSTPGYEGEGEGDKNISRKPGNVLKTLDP

T2: recombinant human NRP-1 (Phe22-Lys644) (human) (UniProt O14786)
T2 sequence (chain, biotin): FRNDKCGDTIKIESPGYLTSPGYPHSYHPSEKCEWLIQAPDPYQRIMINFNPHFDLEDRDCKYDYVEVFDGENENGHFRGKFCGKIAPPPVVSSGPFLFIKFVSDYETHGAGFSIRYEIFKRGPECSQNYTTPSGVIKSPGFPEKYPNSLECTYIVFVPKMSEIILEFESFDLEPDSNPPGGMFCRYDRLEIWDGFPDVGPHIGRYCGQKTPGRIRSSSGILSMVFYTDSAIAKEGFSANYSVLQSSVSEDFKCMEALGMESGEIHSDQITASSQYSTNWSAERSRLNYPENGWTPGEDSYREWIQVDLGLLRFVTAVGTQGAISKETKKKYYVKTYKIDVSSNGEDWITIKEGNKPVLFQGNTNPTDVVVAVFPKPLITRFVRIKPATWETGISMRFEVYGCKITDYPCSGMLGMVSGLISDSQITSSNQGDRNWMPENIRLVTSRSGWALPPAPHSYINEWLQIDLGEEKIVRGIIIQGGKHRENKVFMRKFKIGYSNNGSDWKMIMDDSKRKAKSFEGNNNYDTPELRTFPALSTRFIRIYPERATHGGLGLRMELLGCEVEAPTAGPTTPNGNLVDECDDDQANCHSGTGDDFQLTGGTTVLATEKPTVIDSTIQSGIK


How the values were obtained:
[1] = biological target: human NRP-1 expressed on COS cells (human) (UniProt O14786); assay: alkaline phosphatase-ligand cell-binding assay; COS cells transfected with mouse or human NRP-1, incubated with AP-conjugated Sema3A in the presence of Nb1 or control Nb BCII10; cell-bound AP revealed with p-nitrophenylphosphate, read at 405 nm
[2] = biological target: mouse NRP-1 expressed on COS cells (mouse) (UniProt P97333); assay: as above
[3] = biological target: T1, biotinylated recombinant mouse NRP1 (Phe22-Pro856) (mouse); assay: AlphaScreen or HTRF; competition: biotinylated NRP1 (1.6 nM) with a dilution series of Nb1 or BCII10 for 1 h at room temperature, then human Sema3A-Fc (6 nM) for 1 h; streptavidin donor beads and anti-human IgG (Fc specific) acceptor beads; both purified
[4] = biological target: T2, recombinant human NRP-1 (Phe22-Lys644) (human); assay: as above

Binder | binding [1] | binding [2] | binding [3] | binding [4]
alkaline phosphatase (AP)-conjugated Sema3A (ligand, UniProt Q14563 21-771) NYQNGKNNVPRLKLSYKEMLESNNVITFNGLANSSSYHTFLLDEERSRLYVGAKDHIFSFDLVNIKDFQKIVWPVSYTRRDECKWAGKDILKECANFIKVLKAYNQTHLYACGTGAFHPICTYIEIGHHPEDNIFKLENSHFENGRGKSPYDPKLLTASLLIDGELYSGTAADFMGRDFAIFRTLGHHHPIRTEQHDSRWLNDPKFISAHLISESDNPEDDKVYFFFRENAIDGEHSGKATHARIGQICKNDFGGHRSLVNKWTTFLKARLICSVPGPNGIDTHFDELQDVFLMNFKDPKNPVVYGVFTTSSNIFKGSAVCMYSMSDVRRVFLGPYAHRDGPNYQWVPYQGRVPYPRPGTCPSKTFGGFDSTKDLPDDVITFARSHPAMYNPVFPMNNRPIVIKTDVNYQFTQIVVDRVDAEDGQYDVMFIGTDVGTVLKVVSIPKETWYDLEEVLLEEMTVFREPTAISAMELSTKQQQLYIGSTAGVAQLPLHRCDIYGKACAECCLARDPYCAWDGSACSRYFPTAKRRTRRQDIRNGDPLTHCSDLHHDNHHGHSPEERIIYGVENSSTFLECSPKSQRALVYWQFQRRNEERKEEIRVDDHIIRTDQGLLLRSLQQKDSGNYLCHAVEHGFIQTLLKVTLEVIDTEHLEELLHKDDDGDGSKTKEMSNSMTPSQKVWYRDFMQLINHPNLNTMDEFCEQVWKRDRKQRRQRPGHTPGNSNKWKHLQENKKGRNRRTHEFERAPRSV | binds | binds |  | 
human Sema3A-Fc (Fc fusion, UniProt Q14563 21-771) NYQNGKNNVPRLKLSYKEMLESNNVITFNGLANSSSYHTFLLDEERSRLYVGAKDHIFSFDLVNIKDFQKIVWPVSYTRRDECKWAGKDILKECANFIKVLKAYNQTHLYACGTGAFHPICTYIEIGHHPEDNIFKLENSHFENGRGKSPYDPKLLTASLLIDGELYSGTAADFMGRDFAIFRTLGHHHPIRTEQHDSRWLNDPKFISAHLISESDNPEDDKVYFFFRENAIDGEHSGKATHARIGQICKNDFGGHRSLVNKWTTFLKARLICSVPGPNGIDTHFDELQDVFLMNFKDPKNPVVYGVFTTSSNIFKGSAVCMYSMSDVRRVFLGPYAHRDGPNYQWVPYQGRVPYPRPGTCPSKTFGGFDSTKDLPDDVITFARSHPAMYNPVFPMNNRPIVIKTDVNYQFTQIVVDRVDAEDGQYDVMFIGTDVGTVLKVVSIPKETWYDLEEVLLEEMTVFREPTAISAMELSTKQQQLYIGSTAGVAQLPLHRCDIYGKACAECCLARDPYCAWDGSACSRYFPTAKRRTRRQDIRNGDPLTHCSDLHHDNHHGHSPEERIIYGVENSSTFLECSPKSQRALVYWQFQRRNEERKEEIRVDDHIIRTDQGLLLRSLQQKDSGNYLCHAVEHGFIQTLLKVTLEVIDTEHLEELLHKDDDGDGSKTKEMSNSMTPSQKVWYRDFMQLINHPNLNTMDEFCEQVWKRDRKQRRQRPGHTPGNSNKWKHLQENKKGRNRRTHEFERAPRSV |  |  | binds | binds
